Measurements reported in patent US20220178930A1.
No constants are given. Whether binding was seen depends on the method and setting. Some entries that bind do so weakly or less than the wild type.

Molecular target: Galectin-9 (human) (UniProt O00182)
Assay: flow cytometry on cells of tumor biopsy fractions

B1: anti-Galectin-9 G9.2-17 Fab fragment (Fab, V domains shown)
VH: EVQLVESGGGLVQPGGSLRLSCAASGFTVSSSSIHWVRQAPGKGLEWVAYISSSSGYTYYADSVKGRFTISADTSKNTAYLQMNSLRAEDTAVYYCARYWSYPSWWPYRGMDYWGQGTLVTVSS
VL: DIQMTQSPSSLSASVGDRVTITCRASQSVSSAVAWYQQKPGKAPKLLIYSASSLYSGVPSRFSGSRSGTDFTLTISSLQPEDFATYYCQQSSTDPITFGQGTKVEIKR
binding: binds
